Source: patent US20260209319A1
Results are given in words; binding and its absence hold for the method and conditions named. Some entries that bind do so weakly or less than the wild type.

By UniProt entry, the sequences of proteins in these tests, tags left out. Where a name states a change or a piece, a line headed by the entry shows the natural chain unless it says otherwise. Chains listed by the source or under a name are the forms on record and can include a tag or linker.
mesothelin (soluble, recombinant) (Q13421, form named): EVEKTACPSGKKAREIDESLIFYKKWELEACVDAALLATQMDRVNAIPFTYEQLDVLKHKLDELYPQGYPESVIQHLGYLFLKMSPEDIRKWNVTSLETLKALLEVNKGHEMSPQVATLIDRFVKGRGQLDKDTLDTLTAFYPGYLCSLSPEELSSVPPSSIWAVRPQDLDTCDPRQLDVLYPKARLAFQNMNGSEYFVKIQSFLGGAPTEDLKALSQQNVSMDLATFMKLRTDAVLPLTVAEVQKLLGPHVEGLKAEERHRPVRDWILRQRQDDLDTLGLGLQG

Experiments:
[1] = target: mesothelin (soluble, recombinant) (UniProt Q13421); test: Octet, IgG captured on anti-human Fc (AHC) biosensor, 125 nM mesothelin, 5 min association, 5 min dissociation [panel MSLN-1]
[2] = target: mesothelin (soluble, recombinant) (UniProt Q13421); test: Octet, IgG captured on anti-human Fc (AHC) biosensor, 125 nM mesothelin, 5 min association, 5 min dissociation [panel MSLN-2]
[3] = target: mesothelin (soluble, recombinant) (UniProt Q13421); test: Octet, IgG captured on anti-human Fc (AHC) biosensor, 125 nM mesothelin, 5 min association, 5 min dissociation [panel MSLN-3]
[4] = target: mesothelin (soluble, recombinant) (UniProt Q13421); test: Octet, IgG captured on anti-human Fc (AHC) biosensor, 125 nM mesothelin, 5 min association, 5 min dissociation [panel MSLN-5]
[5] = target: mesothelin (soluble, recombinant) (UniProt Q13421); test: Octet, IgG captured on anti-human Fc (AHC) biosensor, 125 nM mesothelin, 5 min association, 5 min dissociation [panel MSLN-6]
[6] = target: mesothelin (soluble, recombinant) (UniProt Q13421); test: Octet, IgG captured on anti-human Fc (AHC) biosensor, 125 nM mesothelin, 5 min association, 5 min dissociation [panel MSLN-7]
[7] = target: mesothelin (soluble, recombinant) (UniProt Q13421); test: Octet, IgG captured on anti-human Fc (AHC) biosensor, 125 nM mesothelin, 5 min association, 5 min dissociation [panel MSLN-9]
[8] = target: mesothelin (soluble, recombinant) (UniProt Q13421); test: Octet, IgG captured on anti-human Fc (AHC) biosensor, 125 nM mesothelin, 5 min association, 5 min dissociation [panel MSLN-10]
[9] = target: mesothelin (soluble, recombinant) (UniProt Q13421); test: Octet, IgG captured on anti-human Fc (AHC) biosensor, 125 nM mesothelin, 5 min association, 5 min dissociation [panel MSLN-11]
[10] = target: mesothelin (soluble, recombinant) (UniProt Q13421); test: Octet, IgG captured on anti-human Fc (AHC) biosensor, 125 nM mesothelin, 5 min association, 5 min dissociation [panel MSLN-13]
[11] = target: mesothelin (soluble, recombinant) (UniProt Q13421); test: Octet, IgG captured on anti-human Fc (AHC) biosensor, 125 nM mesothelin, 5 min association, 5 min dissociation [panel MSLN-14]
[12] = target: mesothelin (soluble, recombinant) (UniProt Q13421); test: Octet, IgG captured on anti-human Fc (AHC) biosensor, 125 nM mesothelin, 5 min association, 5 min dissociation [panel MSLN-15]
[13] = target: mesothelin (soluble, recombinant) (UniProt Q13421); test: Octet, IgG captured on anti-human Fc (AHC) biosensor, 125 nM mesothelin, 5 min association, 5 min dissociation [panel MSLN-16]
[14] = target: mesothelin (soluble, recombinant) (UniProt Q13421); test: Octet, IgG captured on anti-human Fc (AHC) biosensor, 125 nM mesothelin, 5 min association, 5 min dissociation [panel MSLN-17]
[15] = target: mesothelin (soluble, recombinant) (UniProt Q13421); test: Octet, IgG captured on anti-human Fc (AHC) biosensor, 125 nM mesothelin, 5 min association, 5 min dissociation [panel MSLN-18]

B1: MSLN-1 (antibody, V domains shown)
VH: QVQLQESGPGLVKPSETLSLTCTVSGGSVSSYHDLWSWIRQPPGKGLEWIGYIYYSGSTNYNPSLKSRVTISVDTSKNQFSLKLSSVTAADTAVYYCAREDALTGFDIWGQGTMVTVSS
VL: DIQMTQSPSSLSASVGDRVTITCRASQSISSYLNWYQQKPGKAPKLLIYAASSLQSGVPSRFSGSGSGTDFTLTISSLQPEDFATYYCQQSYDASYTFGGGTKVEIK
binding [1]: binds

B2: MSLN-2 (antibody, V domains shown)
VH: QVQLQESGPGLVKPSETLSLTCTVSGGSVSSRDDLWSWIRQPPGKGLEWIGYIYYSGSTNYNPSLKSRVTISVDTSKNQFSLKLSSVTAADTAVYYCAREDALTGFDIWGQGTMVTVSS
VL: DIQMTQSPSSLSASVGDRVTITCRASQSISSYLNWYQQKPGKAPKLLIYAASSLQSGVPSRFSGSGSGTDFTLTISSLQPEDFATYYCQQSYDASYTFGGGTKVEIK
binding [2]: binds

B3: MSLN-3 (antibody, V domains shown)
VH: QVQLQESGPGLVKPSETLSLTCTVSGGSVSSFTDTWSWIRQPPGKGLEWIGYIYYSGSTNYNPSLKSRVTISVDTSKNQFSLKLSSVTAADTAVYYCAREDALTGFDIWGQGTMVTVSS
VL: DIQMTQSPSSLSASVGDRVTITCRASQSISSYLNWYQQKPGKAPKLLIYAASSLQSGVPSRFSGSGSGTDFTLTISSLQPEDFATYYCQQSYDASYTFGGGTKVEIK
binding [3]: binds

B4: MSLN-5 (antibody, V domains shown)
VH: QVQLQESGPGLVKPSETLSLTCTVSGGSVSSYHDLWSWIRQPPGKGLEWIGYIYYSGSTNYNPSLKSRVTISVDTSKNQFSLKLSSVTAADTAVYYCARDFVLSGFDIWGQGTMVTVSS
VL: DIQMTQSPSSLSASVGDRVTITCRASQSISSYLNWYQQKPGKAPKLLIYAASSLQSGVPSRFSGSGSGTDFTLTISSLQPEDFATYYCQQSYDASYTFGGGTKVEIK
binding [4]: binds

B5: MSLN-6 (antibody, V domains shown)
VH: QVQLQESGPGLVKPSETLSLTCTVSGGSVSSRDDLWSWIRQPPGKGLEWIGYIYYSGSTNYNPSLKSRVTISVDTSKNQFSLKLSSVTAADTAVYYCARDFVLSGFDIWGQGTMVTVSS
VL: DIQMTQSPSSLSASVGDRVTITCRASQSISSYLNWYQQKPGKAPKLLIYAASSLQSGVPSRFSGSGSGTDFTLTISSLQPEDFATYYCQQSYDASYTFGGGTKVEIK
binding [5]: binds

B6: MSLN-7 (antibody, V domains shown)
VH: QVQLQESGPGLVKPSETLSLTCTVSGGSVSSFTDTWSWIRQPPGKGLEWIGYIYYSGSTNYNPSLKSRVTISVDTSKNQFSLKLSSVTAADTAVYYCARDFVLSGFDIWGQGTMVTVSS
VL: DIQMTQSPSSLSASVGDRVTITCRASQSISSYLNWYQQKPGKAPKLLIYAASSLQSGVPSRFSGSGSGTDFTLTISSLQPEDFATYYCQQSYDASYTFGGGTKVEIK
binding [6]: binds

B7: MSLN-9 (antibody, V domains shown)
VH: QVQLQESGPGLVKPSETLSLTCTVSGGSVSSYHDLWSWIRQPPGKGLEWIGYIYYSGSTNYNPSLKSRVTISVDTSKNQFSLKLSSVTAADTAVYYCARDNVFTGFDIWGQGTMVTVSS
VL: DIQMTQSPSSLSASVGDRVTITCRASQSISSYLNWYQQKPGKAPKLLIYAASSLQSGVPSRFSGSGSGTDFTLTISSLQPEDFATYYCQQSYDASYTFGGGTKVEIK
binding [7]: binds

B8: MSLN-10 (antibody, V domains shown)
VH: QVQLQESGPGLVKPSETLSLTCTVSGGSVSSRDDLWSWIRQPPGKGLEWIGYIYYSGSTNYNPSLKSRVTISVDTSKNQFSLKLSSVTAADTAVYYCARDNVFTGFDIWGQGTMVTVSS
VL: DIQMTQSPSSLSASVGDRVTITCRASQSISSYLNWYQQKPGKAPKLLIYAASSLQSGVPSRFSGSGSGTDFTLTISSLQPEDFATYYCQQSYDASYTFGGGTKVEIK
binding [8]: binds

B9: MSLN-11 (antibody, V domains shown)
VH: QVQLQESGPGLVKPSETLSLTCTVSGGSVSSFTDTWSWIRQPPGKGLEWIGYIYYSGSTNYNPSLKSRVTISVDTSKNQFSLKLSSVTAADTAVYYCARDNVFTGFDIWGQGTMVTVSS
VL: DIQMTQSPSSLSASVGDRVTITCRASQSISSYLNWYQQKPGKAPKLLIYAASSLQSGVPSRFSGSGSGTDFTLTISSLQPEDFATYYCQQSYDASYTFGGGTKVEIK
binding [9]: binds

B10: MSLN-13 (antibody, V domains shown)
VH: QVQLQESGPGLVKPSETLSLTCTVSGGSVSSYHDLWSWIRQPPGKGLEWIGYIYYSGSTNYNPSLKSRVTISVDTSKNQFSLKLSSVTAADTAVYYCAREDALTGFDIWGQGTMVTVSS
VL: DIQMTQSPSSLSASVGDRVTITCRASQSSRYYVNWYQQKPGKAPKLLIYAASSLQSGVPSRFSGSGSGTDFTLTISSLQPEDFATYYCQQPYDASYTFGGGTKVEIK
binding [10]: binds

B11: MSLN-14 (antibody, V domains shown)
VH: QVQLQESGPGLVKPSETLSLTCTVSGGSVSSRDDLWSWIRQPPGKGLEWIGYIYYSGSTNYNPSLKSRVTISVDTSKNQFSLKLSSVTAADTAVYYCAREDALTGFDIWGQGTMVTVSS
VL: DIQMTQSPSSLSASVGDRVTITCRASQSSRYYVNWYQQKPGKAPKLLIYAASSLQSGVPSRFSGSGSGTDFTLTISSLQPEDFATYYCQQPYDASYTFGGGTKVEIK
binding [11]: binds

B12: MSLN-15 (antibody, V domains shown)
VH: QVQLQESGPGLVKPSETLSLTCTVSGGSVSSFTDTWSWIRQPPGKGLEWIGYIYYSGSTNYNPSLKSRVTISVDTSKNQFSLKLSSVTAADTAVYYCAREDALTGFDIWGQGTMVTVSS
VL: DIQMTQSPSSLSASVGDRVTITCRASQSSRYYVNWYQQKPGKAPKLLIYAASSLQSGVPSRFSGSGSGTDFTLTISSLQPEDFATYYCQQPYDASYTFGGGTKVEIK
binding [12]: binds

B13: MSLN-16 (antibody, V domains shown)
VH: QVQLQESGPGLVKPSETLSLTCTVSGGSVSSYYSTWSWIRQPPGKGLEWIGYIYYSGSTNYNPSLKSRVTISVDTSKNQFSLKLSSVTAADTAVYYCAREDALTGFDIWGQGTMVTVSS
VL: DIQMTQSPSSLSASVGDRVTITCRASQSSRYYVNWYQQKPGKAPKLLIYAASSLQSGVPSRFSGSGSGTDFTLTISSLQPEDFATYYCQQPYDASYTFGGGTKVEIK
binding [13]: binds

B14: MSLN-17 (antibody, V domains shown)
VH: QVQLQESGPGLVKPSETLSLTCTVSGGSVSSYHDLWSWIRQPPGKGLEWIGYIYYSGSTNYNPSLKSRVTISVDTSKNQFSLKLSSVTAADTAVYYCARDFVLSGFDIWGQGTMVTVSS
VL: DIQMTQSPSSLSASVGDRVTITCRASQSSRYYVNWYQQKPGKAPKLLIYAASSLQSGVPSRFSGSGSGTDFTLTISSLQPEDFATYYCQQPYDASYTFGGGTKVEIK
binding [14]: binds

B15: MSLN-18 (antibody, V domains shown)
VH: QVQLQESGPGLVKPSETLSLTCTVSGGSVSSRDDLWSWIRQPPGKGLEWIGYIYYSGSTNYNPSLKSRVTISVDTSKNQFSLKLSSVTAADTAVYYCARDFVLSGFDIWGQGTMVTVSS
VL: DIQMTQSPSSLSASVGDRVTITCRASQSSRYYVNWYQQKPGKAPKLLIYAASSLQSGVPSRFSGSGSGTDFTLTISSLQPEDFATYYCQQPYDASYTFGGGTKVEIK
binding [15]: binds
